Results are given in words; binding and its absence hold for the method and conditions named. For some of these results: Binding seen in cells or lysates may run through a third protein. Some entries that bind do so weakly or less than the wild type.
T1: OMI/HtrA2, endogenous in Oli-neu cells, processed form (36 kDa / 37 kDa) (mouse (endogenous in Oli-neu)) (UniProt Q9JIY5)
T1 sequence: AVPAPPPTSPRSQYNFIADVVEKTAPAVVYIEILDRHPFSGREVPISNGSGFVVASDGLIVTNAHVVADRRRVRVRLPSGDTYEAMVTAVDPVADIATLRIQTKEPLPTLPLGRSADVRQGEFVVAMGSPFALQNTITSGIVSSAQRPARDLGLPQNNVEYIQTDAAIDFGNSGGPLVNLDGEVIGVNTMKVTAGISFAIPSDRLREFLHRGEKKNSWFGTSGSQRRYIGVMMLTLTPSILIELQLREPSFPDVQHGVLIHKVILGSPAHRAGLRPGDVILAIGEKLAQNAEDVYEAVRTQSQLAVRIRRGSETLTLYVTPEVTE

Amino acid sequences for entries named in this document (tags omitted). Residues count along the entry.
UniProt Q8VHY0, residues 30-2327: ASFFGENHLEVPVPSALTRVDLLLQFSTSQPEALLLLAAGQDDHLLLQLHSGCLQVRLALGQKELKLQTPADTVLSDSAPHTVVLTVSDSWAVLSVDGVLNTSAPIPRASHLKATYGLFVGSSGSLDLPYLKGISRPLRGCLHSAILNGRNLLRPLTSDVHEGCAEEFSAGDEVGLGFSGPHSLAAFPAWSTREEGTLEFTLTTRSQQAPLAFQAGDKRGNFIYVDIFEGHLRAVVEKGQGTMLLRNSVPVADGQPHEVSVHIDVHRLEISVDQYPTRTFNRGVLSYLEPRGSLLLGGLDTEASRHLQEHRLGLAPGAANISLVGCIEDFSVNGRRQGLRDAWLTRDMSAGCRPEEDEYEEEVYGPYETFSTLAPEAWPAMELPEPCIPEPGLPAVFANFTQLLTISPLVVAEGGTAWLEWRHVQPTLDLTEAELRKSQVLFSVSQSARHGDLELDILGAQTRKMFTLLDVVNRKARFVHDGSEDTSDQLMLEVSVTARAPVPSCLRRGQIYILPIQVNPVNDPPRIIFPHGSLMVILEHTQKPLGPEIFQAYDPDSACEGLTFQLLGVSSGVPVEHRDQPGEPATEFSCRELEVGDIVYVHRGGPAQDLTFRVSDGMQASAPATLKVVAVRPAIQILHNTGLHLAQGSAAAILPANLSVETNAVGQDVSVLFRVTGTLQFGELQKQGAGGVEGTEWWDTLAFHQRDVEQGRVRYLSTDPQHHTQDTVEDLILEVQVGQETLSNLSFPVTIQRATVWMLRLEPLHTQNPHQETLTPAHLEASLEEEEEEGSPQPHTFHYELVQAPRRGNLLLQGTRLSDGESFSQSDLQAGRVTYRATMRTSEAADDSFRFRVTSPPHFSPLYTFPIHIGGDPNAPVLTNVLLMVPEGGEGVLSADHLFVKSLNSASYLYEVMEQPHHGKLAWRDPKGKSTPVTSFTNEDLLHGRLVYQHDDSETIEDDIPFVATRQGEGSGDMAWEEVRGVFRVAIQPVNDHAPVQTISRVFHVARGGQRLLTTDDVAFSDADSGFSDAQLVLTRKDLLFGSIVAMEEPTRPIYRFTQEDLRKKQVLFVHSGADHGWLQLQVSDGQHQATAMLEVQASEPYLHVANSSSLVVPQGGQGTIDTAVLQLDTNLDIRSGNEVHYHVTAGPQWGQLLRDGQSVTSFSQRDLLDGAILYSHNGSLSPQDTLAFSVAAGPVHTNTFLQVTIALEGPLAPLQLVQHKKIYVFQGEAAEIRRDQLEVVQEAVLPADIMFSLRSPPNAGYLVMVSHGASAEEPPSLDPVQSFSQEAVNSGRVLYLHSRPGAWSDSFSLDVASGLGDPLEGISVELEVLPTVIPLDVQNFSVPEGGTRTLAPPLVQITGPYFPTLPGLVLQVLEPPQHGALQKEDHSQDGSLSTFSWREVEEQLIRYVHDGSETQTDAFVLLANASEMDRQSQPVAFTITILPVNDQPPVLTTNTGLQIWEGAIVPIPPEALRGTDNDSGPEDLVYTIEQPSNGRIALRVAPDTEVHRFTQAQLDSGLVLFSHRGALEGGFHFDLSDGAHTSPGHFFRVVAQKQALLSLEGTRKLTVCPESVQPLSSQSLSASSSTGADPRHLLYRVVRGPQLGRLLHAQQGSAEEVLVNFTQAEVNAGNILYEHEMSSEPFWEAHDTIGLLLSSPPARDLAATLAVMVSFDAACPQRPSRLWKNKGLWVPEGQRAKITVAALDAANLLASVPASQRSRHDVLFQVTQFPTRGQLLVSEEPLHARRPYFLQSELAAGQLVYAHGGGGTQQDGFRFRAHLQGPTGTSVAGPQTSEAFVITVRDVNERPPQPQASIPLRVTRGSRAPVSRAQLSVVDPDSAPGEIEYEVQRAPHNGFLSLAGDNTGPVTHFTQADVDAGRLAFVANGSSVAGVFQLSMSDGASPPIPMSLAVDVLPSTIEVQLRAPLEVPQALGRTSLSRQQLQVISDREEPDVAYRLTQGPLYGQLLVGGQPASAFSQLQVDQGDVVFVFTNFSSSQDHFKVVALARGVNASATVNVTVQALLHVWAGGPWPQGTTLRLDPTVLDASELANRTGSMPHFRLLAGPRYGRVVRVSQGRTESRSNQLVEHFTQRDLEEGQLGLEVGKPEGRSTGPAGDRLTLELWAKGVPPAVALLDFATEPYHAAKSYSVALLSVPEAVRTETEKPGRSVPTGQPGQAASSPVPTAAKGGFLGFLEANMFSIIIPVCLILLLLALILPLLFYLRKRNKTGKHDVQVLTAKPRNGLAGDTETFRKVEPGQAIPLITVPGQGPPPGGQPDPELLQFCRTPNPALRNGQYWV

B1: OMI/HtrA2, endogenous in Oli-neu cells, processed form (36 kDa / 37 kDa) (enzyme, UniProt Q9JIY5 134-458)
chain: T1 sequence

Legend:
[1] = molecular target: T1, OMI/HtrA2, endogenous in Oli-neu cells, processed form (36 kDa / 37 kDa) (mouse (endogenous in Oli-neu)); test: co-IP; Oli-neu lysate (50 mM Tris pH 7.4, 150 mM NaCl, 1% Triton X-100, in some cases 30 mM n-octyl-glucoside); IP with polyclonal OMI/HtrA2 antibody on protein A- or G-Sepharose, overnight at 4°C; blot for NG2 and COX-I
[2] = molecular target: NG2 proteoglycan (Nerve-glial antigen 2, chondroitin sulfate proteoglycan 4), endogenous in Oli-neu cells (mouse (endogenous in Oli-neu)) (UniProt Q8VHY0); test: co-IP; Oli-neu lysate (50 mM Tris pH 7.4, 150 mM NaCl, 1% Triton X-100, in some cases 30 mM n-octyl-glucoside); IP with monoclonal NG2 antibody coupled to CNBr-activated Sepharose; blot for OMI/HtrA2
[3] = molecular target: NG2 proteoglycan (Nerve-glial antigen 2, chondroitin sulfate proteoglycan 4), endogenous in Oli-neu cells (mouse (endogenous in Oli-neu)) (UniProt Q8VHY0); test: CoIP-ELISA; NG2 monoclonal antibody on 96 well plates holds living Oli-neu cells by NG2; cells stressed with H2O2 (25–500 μM; 4 h in the methods, five hours in the legend), then lysed; OMI/HtrA2 bound to captured NG2 detected with polyclonal OMI/HtrA2 antibody and HRP antibody

Molecule	binding [1]	binding [2]	binding [3]
NG2 proteoglycan (Nerve-glial antigen 2, chondroitin sulfate proteoglycan 4), endogenous in Oli-neu cells (from UniProt Q8VHY0 30-2327)	binds	–	–
COX-I, mitochondrial membrane protein, endogenous in Oli-neu cells (from UniProt P00397 1-514)	no binding	–	–
B1	–	binds	binds
